Reference: PMC10754441
Results are given in words; binding and its absence hold for the method and conditions named. Binding can be weak; no strength is given. For some assays here: Binding seen in cells or lysates may run through a third protein.

What was measured:
[1] = target: DjlA variant with a C-terminal HA-tag (DjlA-HA) (Caulobacter crescentus); test: ChIP-Seq; formaldehyde-crosslinked chromatin from cells expressing DjlA-HA from the xylX locus, with or without NAL (20 ug/mL, 30 minutes); immunoprecipitation of DjlA-HA by its HA tag; occupancy of the acrA promoter compared with tipR::Tn cells
[2] = target: DjlA variant with a C-terminal HA-tag (DjlA-HA) (Caulobacter crescentus); test: co-IP; anti-HA affinity matrix pull-down of HA-tagged DjlA from C. crescentus lysates, with or without NAL (10 ug/mL, 2 hours); beads overnight at 4°C, washed with 10 mM Tris-HCl 7.5, 150 mM NaCl, 0.5 mM EDTA, 0.5% DDM; immunoblot with polyclonal antibodies to AcrA and TipR

In the case of TipR (from UniProt A0A0H3C6G9), the binding [1] is reported as “binds” and the binding [2] is reported as “binds”.
